Measurements published in patent US8173771B2, “Humanin receptor or humanin-like polypeptide receptor” (Keio Univeristy, priority 2005, dated 2012).
At least one structure is not confirmed: it was looked up by name or label, or the drawing left a doubt. Peptide text beside a SMILES is read from it.

Molecular target: T1, HN receptor (HNR; CNTF-R/WSX-1/gp130) on F11 cells (Mus musculus, UniProt O70394+O88507)
T1 construct: endogenous in cells; host or cells: F11 neurohybrid cells
T1 sequence (O70394 25-623): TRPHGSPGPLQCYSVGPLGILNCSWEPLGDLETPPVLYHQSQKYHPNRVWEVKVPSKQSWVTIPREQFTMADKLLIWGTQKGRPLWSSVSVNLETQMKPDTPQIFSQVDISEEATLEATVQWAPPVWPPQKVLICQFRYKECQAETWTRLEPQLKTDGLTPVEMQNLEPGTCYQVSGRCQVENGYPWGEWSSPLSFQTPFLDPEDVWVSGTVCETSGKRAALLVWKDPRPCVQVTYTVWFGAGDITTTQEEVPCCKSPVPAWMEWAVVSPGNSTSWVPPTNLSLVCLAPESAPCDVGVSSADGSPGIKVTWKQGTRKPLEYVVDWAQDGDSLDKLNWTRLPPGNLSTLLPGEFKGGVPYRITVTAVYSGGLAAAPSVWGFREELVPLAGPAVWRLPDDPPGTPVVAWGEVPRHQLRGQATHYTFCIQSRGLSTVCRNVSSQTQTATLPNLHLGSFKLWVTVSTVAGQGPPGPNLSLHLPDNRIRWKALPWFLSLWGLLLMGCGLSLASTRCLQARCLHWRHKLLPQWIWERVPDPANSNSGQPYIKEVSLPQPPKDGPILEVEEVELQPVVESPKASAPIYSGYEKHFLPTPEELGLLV
T1 sequence (O88507 23-342): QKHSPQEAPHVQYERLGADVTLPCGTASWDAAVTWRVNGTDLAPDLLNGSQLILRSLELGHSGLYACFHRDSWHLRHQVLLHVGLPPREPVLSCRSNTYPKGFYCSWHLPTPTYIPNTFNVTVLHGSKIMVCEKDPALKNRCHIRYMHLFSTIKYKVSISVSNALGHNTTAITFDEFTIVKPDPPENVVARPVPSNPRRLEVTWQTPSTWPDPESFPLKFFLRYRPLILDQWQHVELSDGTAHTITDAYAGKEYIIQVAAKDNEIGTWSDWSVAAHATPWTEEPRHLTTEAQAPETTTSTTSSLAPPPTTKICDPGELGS
T1 sequence (Q00560 23-917 partner): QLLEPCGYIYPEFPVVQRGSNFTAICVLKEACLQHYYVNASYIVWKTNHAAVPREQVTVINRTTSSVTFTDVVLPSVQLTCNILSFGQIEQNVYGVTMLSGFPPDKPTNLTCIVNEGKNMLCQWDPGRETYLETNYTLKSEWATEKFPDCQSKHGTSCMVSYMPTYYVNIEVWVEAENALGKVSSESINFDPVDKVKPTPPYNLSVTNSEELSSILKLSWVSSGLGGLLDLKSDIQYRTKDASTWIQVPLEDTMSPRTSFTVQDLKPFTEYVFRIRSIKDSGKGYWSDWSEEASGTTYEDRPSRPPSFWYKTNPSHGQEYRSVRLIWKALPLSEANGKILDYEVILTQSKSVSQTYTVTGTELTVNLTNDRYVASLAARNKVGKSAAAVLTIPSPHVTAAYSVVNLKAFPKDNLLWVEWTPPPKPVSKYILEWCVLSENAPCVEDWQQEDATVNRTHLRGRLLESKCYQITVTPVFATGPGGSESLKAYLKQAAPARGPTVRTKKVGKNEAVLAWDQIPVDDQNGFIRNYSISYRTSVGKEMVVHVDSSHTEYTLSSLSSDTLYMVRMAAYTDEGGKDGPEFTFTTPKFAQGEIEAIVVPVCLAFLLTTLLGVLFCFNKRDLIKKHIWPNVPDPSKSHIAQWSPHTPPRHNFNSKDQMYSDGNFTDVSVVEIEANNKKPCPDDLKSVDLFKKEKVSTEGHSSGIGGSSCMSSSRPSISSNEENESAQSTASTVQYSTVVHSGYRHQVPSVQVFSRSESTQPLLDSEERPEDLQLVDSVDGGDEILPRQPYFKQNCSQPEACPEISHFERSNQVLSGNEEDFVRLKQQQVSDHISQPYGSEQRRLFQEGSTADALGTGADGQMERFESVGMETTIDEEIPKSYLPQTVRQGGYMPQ
Assay: Immunofluorescence-based binding assay (2): biotin-HN / biotin-HNG binding to F11 cells
Conditions: biotin-HNG; F11 cells with endogenous HNR or transfected with CNTF-R/WSX-1/gp130
Procedure: A) F11 cells were seeded on 96-well plates coated with poly-L-lysine (7×10^3 cells/well). An indicated amount of biotin-HN or biotin-HNG was added to the cells with or without 10 μM of unlabelled HNG or HNA, followed by a binding assay based on immunofluorescence reaction (2) (left panels). On the other hand, F11 cells were transfected with 0.5 μg of pcDNA3.1/GS-human CNTF-R, pEF1/MycHis-human WSX-1, and 1.0 μg of pCAG-human gp130. At 24 hrs after the transfection, the cells were re-seeded on 96-well plates coated with poly-L-lysine (7×10^3 cells/well). After 36 hrs the re-seeding, an indicated amount of biotin-HN or biotin-HNG was added to the cells with or without 10 μM of unlabeled HNG or HNA, followed by a binding assay based on immunofluorescence reaction (2) (right panels).
B) F11 cells were transfected with 0.5 μg of pRNA-U1.6/Shuttle vector, pRNA-U6.1/Shuttle-WSX-1 siRNA, pRNA-U6.1/Shuttle-CNTF-R siRNA, both pRNA-U6.1/Shuttle-WSX-1 siRNA and pRNA-U6.1/Shuttle-CNTF-R siRNA (0.5 μg each), pRNA-U6.1/Shuttle-FPR2 siRNA or pRNA-U6.1/Shuttle-LIFR siRNA. The total amount of vectors was adjusted to be 1.0 μg by including a backbone vector. At 24 hrs after the transfection, an indicated amount of biotin-HNG was added with or without unlabeled HNG, followed by a binding assay based on immunofluorescence reaction (2) at 72 hrs after the transfection.
E) F11 cells on 6-well plate (7×10^4 cells/well) were transfected with 1.0 μg of pRNA-U6.1/Shuttle vector, pRNA-U6.1/Shuttle-Bax siRNA, or both pRNA-U6.1/Shuttle-WSX-1 siRNA and pRNA-U6.1/Shuttle-CNTF-R siRNA (0.5 μg each). At 72 hrs after the transfection, the cells were added with an indicated amount of biotin-HN with or without unlabeled HN or HNA (100 μM) and subjected to an HN-binding assay based on immunofluorescence.
F11 cells (7×10^4/well in 6-well plates) were replated into 96-well plates (7×10^3 cells/well) at 24 hrs after transfection with indicated amounts of the plasmids encoding mycHis-WSX or V5-CNTF-R, and with PCAG-human gp130 if required. At 36 hrs after transfection, the cells were added with biotin-labeled HN or HNG of indicated concentrations in the presence or the absence of HNG (S14G-HN) or HNA (C8A-HN) of indicated concentrations (Hashimoto et al., 2001 a). After 6 hrs incubation, they were fixed with 4% paraformaldehyde in PBS for 30 min. After washing with PBS, cells were stained with FITC-conjugated avidin (Molecularprobe, Eugene, Oreg., USA). Immunofluorescence intensity was measured (excitation=485 nm, emission=535 nm) with a spectrofluorometer (Wallac1420 ARVOsx Multi Label Counter). Immunohistochemical analysis was done with a laser-scanning, confocal microscope LSM (Carl Zeiss, Germany).

A Kd of 1 to 10 nM was found for `CC[C@H](C)[C@H](NC(=O)[C@H](CCC(=O)O)NC(=O)CNC(=O)[C@@H](NC(=O)[C@H](CC(C)C)NC(=O)[C@H](CC(C)C)NC(=O)[C@H](CC(C)C)NC(=O)[C@H](CC(C)C)NC(=O)[C@H](CS)NC(=O)[C@H](CO)NC(=O)[C@H](Cc1ccccc1)NC(=O)CNC(=O)[C@H](CCCNC(=N)N)NC(=O)[C@@H]1CCCN1C(=O)[C@H](C)NC(=O)[C@@H](N)CCSC)[C@@H](C)O)C(=O)N[C@@H](CC(=O)O)C(=O)N[C@@H](CC(C)C)C(=O)N1CCC[C@H]1C(=O)N[C@H](C(=O)N[C@@H](CCCCN)C(=O)N[C@@H](CCCNC(=N)N)C(=O)N[C@@H](CCCNC(=N)N)C(=O)N[C@@H](C)C(=O)O)C(C)C` [HNG, S14 G-Humanin] (H-MAPRGFSCLLLLTGEIDLPVKRRA-OH; N-terminus and C-terminus assumed) in this work.
